The nature of the series: general procedure: peptide synthesis; adipic acid bis-HOAT ester, collidine. The settings on record: late stage modification step, TFA salt.

For the substance “29-N-(2-Aminoethyl)aminomethyl Vancomycin Tetra-TFA Salt”, the “crude HPLC purity” value came to 78%.

The record behind these values is patent US6995138B2 (priority 2002, dated 2006).
